Test results from patent US20040077549A1 (priority 2000, published 2004).

Assay: general procedure: Fmoc solid-phase peptide synthesis; Fmoc-Gly-SASRIN; HBTU
Settings: whole synthesis, side-chain lactam ring, sequence written open

With “Cpr-Lys-(CH(CH3)(C13H27))-Lys-(Lys-Leu-Phe-Gly)” the isolated yield (overall) was 24%, the crude mass was 1.2 g and the isolated mass was 480 mg.
